The source of these data is the supplement of paper PMC12889115.

Structures are written as SMILES. Some of the results follow. These are raw signals, not scaled to a control.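 Primary screen: polymyxin B was added at a level permeabilizing Salmonella outer membranes while sparing inner membranes. DMSO wells, both with and without polymyxin B, established maximum growth. Plate-to-plate variation meant each plate was ranked on its own, and the lowest-OD600 compounds were selected as hits.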

The subject of this assay is Salmonella enterica serovar Typhimurium SL1344. The assay can be described thus: bacterial growth OD600 after 18 h with compound and polymyxin B; higher = more bacterial growth (less inhibition). The following applies: 50 µM, Mueller-Hinton broth.

Take `COc1cc(=O)n2c(c1C(=O)NC(C)c1ccco1)CCN(Cc1cc3ccccc3s1)CC2` (centres undefined): the “bacterial growth OD600” value (polymyxin B 0.75 µg/mL) came out at 0.775. With `COc1ccc(C(=O)NC2CC2)cc1OC1CCN(Cc2ccc(NC(C)=O)cc2)CC1`, the “bacterial growth OD600” value (polymyxin B 1 µg/mL) is 1.06. `Cc1ccccc1Oc1ncccc1CNC(=O)C1CCCN(C(N)=O)C1` (centres undefined): the “bacterial growth OD600” value (polymyxin B 0.75 µg/mL) is 0.98. Regarding `CC(=O)c1ccc(S(=O)(=O)N2CCC(CO)(Cc3cccc(C(F)(F)F)c3)CC2)cc1`, the “bacterial growth OD600” value (polymyxin B 1 µg/mL) amounted to 0.807. Still for that read-out and setting: the figure for `COc1ccc(OCc2cc(C(=O)NC(CO)C(C)C)no2)c2ccccc12` (centres undefined) is 0.004; for `COc1ccc(NC2CCCN(C(=O)Cc3sc(C)nc3C)C2)cc1OC` (centres undefined) it is 0.927; for `CCOC(=O)CNC(=O)N(C)CC1CCCN(CCc2ccccc2C)C1` (centres undefined) it is 1.06. `CC1(C)CC2CC(C)(CN2C(=O)CCC2(Cc3ccc4ccccc4c3)CCC(=O)N2)C1` (centres undefined): under “polymyxin B 0.75 µg/mL”, the “bacterial growth OD600” value came out at 0.081.

For the compound `O=C(NCc1ccccc1Cl)c1cc(CN2CCOCC2)on1`, for the setting “polymyxin B 1 µg/mL”, the “bacterial growth OD600” value came to 1.06. Turning to `COc1ccccc1Oc1ncccc1CNC(=O)C1CCCCO1` (centres undefined), the “bacterial growth OD600” value (polymyxin B 0.75 µg/mL) was 0.859. The same measure, in the same setting: the result for `CN(C)CCN1C(=O)NC(CCc2ccccc2)(C2CCN(C(=O)Cc3ccsc3)CC2)C1=O` (centres undefined) reads 0.845.

Take `CCOC(=O)C1(Cc2ccccc2F)CCCN(C(=O)COC)C1` (centres undefined): for the setting “polymyxin B 1 µg/mL”, the “bacterial growth OD600” value was 0.911. Turning to `COc1ccc(CNC(=O)CCC2CCCN(Cc3cccc4cccnc34)C2)c(OC)c1` (centres undefined), the “bacterial growth OD600” value (polymyxin B 1 µg/mL) was determined as 1.17. In the case of `Cc1nc2ccccc2n1Cc1cc(C(=O)NCCN2CCCCC2)no1`, the “bacterial growth OD600” value (polymyxin B 0.75 µg/mL) amounted to 0.839. The same measure, in the same setting: the result for `COCCn1cc(C(=O)NCC2(c3ccccc3)CCCC2)c(=O)c(C(=O)N2CCC(C)CC2)c1` reads 0.89; that for `CC(C)CCN(C)C(=O)C1CCN(C2CCN(c3nc4ccccc4o3)CC2)CC1`, 0.647.

In the case of `COc1ccc(NC(=O)CCC2CCCN(C(=O)c3cc(C)nn3C)C2)cc1Cl` (centres undefined), the “bacterial growth OD600” value (polymyxin B 1 µg/mL) is 0.89. As for `O=C(CCC1CCN(C(=O)[C@@H]2C[C@@H]3C=C[C@H]2C3)CC1)Nc1ccc(F)c(Cl)c1`, the “bacterial growth OD600” value (polymyxin B 1 µg/mL) was 0.891. Still for that read-out and setting: the figure for `OCCC1CN(Cc2ccc(F)c(F)c2)CCN1Cc1ccccc1F` (centres undefined) is 0.952.
